# Assay results published in the supplement of paper PMC8728848.
# The other results are listed elsewhere or left out.
# Key:
# Experiment in all cases: glycan array binding signal (z-score within array); higher = stronger binding
# Settings in all cases: glycan notation: IUPAC condensed, linker removed
# [1] = target: Neu5Ac(a2-6)Gal(b1-4)GlcNAc(b1-2)Man(a1-3)[Man(a1-6)]Man(b1-4)GlcNAc(b1-4)GlcNAc
# Summary of the method: (§1)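 From the Consortium for Functional Glycomics database, 3228 arrays were curated, keeping only those whose protein sequence was available. Binding is given as a within-array Z-score averaged across arrays sharing a protein sequence and across linkers. Negative Z-scores can be read as non-binding.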
# [2] = target: Neu5Ac(a2-6)Gal(b1-4)GlcNAc(b1-2)Man(a1-3)[Neu5Ac(a2-3)Gal(b1-4)GlcNAc(b1-2)Man(a1-6)]Man(b1-4)GlcNAc(b1-4)GlcNAc
# Summary of the method: as §1
# [3] = target: Neu5Ac(a2-6)Gal(b1-4)GlcNAc(b1-2)Man(a1-3)[Neu5Ac(a2-6)Gal(b1-4)GlcNAc(b1-2)Man(a1-6)]Man(b1-4)GlcNAc(b1-4)GlcNAc
# Summary of the method: as §1
# [4] = target: Neu5Ac(a2-6)Gal(b1-4)GlcNAc(b1-2)Man(a1-3)[Neu5Ac(a2-6)Gal(b1-4)GlcNAc(b1-2)Man(a1-6)]Man(b1-4)GlcNAc(b1-4)[Fuc(a1-6)]GlcNAc
# Summary of the method: as §1
# [5] = target: Neu5Ac(a2-6)Gal(b1-4)GlcNAc(b1-2)Man(a1-6)Man(b1-4)GlcNAc(b1-4)GlcNAc
# Summary of the method: as §1
# [6] = target: Neu5Ac(a2-6)Gal(b1-4)GlcNAc(b1-2)Man(a1-6)[Gal(b1-4)GlcNAc(b1-2)Man(a1-3)]Man(b1-4)GlcNAc(b1-4)GlcNAc
# Summary of the method: as §1
# [7] = target: Neu5Ac(a2-6)Gal(b1-4)GlcNAc(b1-2)Man(a1-6)[GlcNAc(b1-2)Man(a1-3)]Man(b1-4)GlcNAc(b1-4)GlcNAc
# Summary of the method: as §1
# [8] = target: Neu5Ac(a2-6)Gal(b1-4)GlcNAc(b1-2)Man(a1-6)[Man(a1-3)]Man(b1-4)GlcNAc(b1-4)GlcNAc
# Summary of the method: as §1
# [9] = target: Neu5Ac(a2-6)Gal(b1-4)GlcNAc(b1-2)[Neu5Ac(a2-6)Gal(b1-4)GlcNAc(b1-4)]Man(a1-3)[GlcNAc(b1-4)][Neu5Ac(a2-6)Gal(b1-4)GlcNAc(b1-2)[Neu5Ac(a2-6)Gal(b1-4)GlcNAc(b1-6)]Man(a1-6)]Man(b1-4)GlcNAc(b1-4)GlcNAc
# Summary of the method: as §1
# [10] = target: Neu5Ac(a2-6)Gal(b1-4)GlcNAc(b1-2)[Neu5Ac(a2-6)Gal(b1-4)GlcNAc(b1-4)]Man(a1-3)[GlcNAc(b1-4)][Neu5Ac(a2-6)Gal(b1-4)GlcNAc(b1-4)Man(a1-6)]Man(b1-4)GlcNAc(b1-4)GlcNAc
# Summary of the method: as §1
# [11] = target: Neu5Ac(a2-6)Gal(b1-4)GlcNAc(b1-2)[Neu5Ac(a2-6)Gal(b1-4)GlcNAc(b1-6)]Man(a1-6)[Neu5Ac(a2-6)Gal(b1-4)GlcNAc(b1-2)Man(a1-3)][GlcNAc(b1-4)]Man(b1-4)GlcNAc(b1-4)GlcNAc
# Summary of the method: as §1
# [12] = target: Neu5Ac(a2-6)Gal(b1-4)GlcNAc(b1-3)Gal(b1-3)GlcNAc
# Summary of the method: as §1
# [13] = target: Neu5Ac(a2-6)Gal(b1-4)GlcNAc(b1-3)Gal(b1-4)GlcNAc
# Summary of the method: as §1
# [14] = target: Neu5Ac(a2-6)Gal(b1-4)GlcNAc(b1-3)Gal(b1-4)GlcNAc(b1-2)Man(a1-3)[Neu5Ac(a2-6)Gal(b1-4)GlcNAc(b1-3)Gal(b1-4)GlcNAc(b1-2)Man(a1-6)]GalNAc
# Summary of the method: as §1
# [15] = target: Neu5Ac(a2-6)Gal(b1-4)GlcNAc(b1-3)Gal(b1-4)GlcNAc(b1-3)Gal(b1-4)GlcNAc
# Summary of the method: as §1
# [16] = target: Neu5Ac(a2-6)Gal(b1-4)GlcNAc(b1-3)Gal(b1-4)GlcNAc(b1-3)Gal(b1-4)GlcNAc(b1-2)Man(a1-3)[Neu5Ac(a2-6)Gal(b1-4)GlcNAc(b1-3)Gal(b1-4)GlcNAc(b1-3)Gal(b1-4)GlcNAc(b1-2)Man(a1-6)]GalNAc
# Summary of the method: as §1
# [17] = target: Neu5Ac(a2-6)Gal(b1-4)GlcNAc(b1-3)Gal(b1-4)GlcNAc(b1-3)GalNAc
# Summary of the method: as §1
# [18] = target: Neu5Ac(a2-6)Gal(b1-4)GlcNAc(b1-3)Gal(b1-4)GlcNAc(b1-3)[Neu5Ac(a2-6)Gal(b1-4)GlcNAc(b1-3)Gal(b1-4)GlcNAc(b1-6)]GalNAc
# Summary of the method: as §1
# [19] = target: Neu5Ac(a2-6)Gal(b1-4)GlcNAc(b1-3)Gal(b1-4)GlcNAc(b1-6)[Gal(b1-3)]GalNAc
# Summary of the method: as §1
# [20] = target: Neu5Ac(a2-6)Gal(b1-4)GlcNAc(b1-3)Gal(b1-4)[Fuc(a1-3)]GlcNAc(b1-3)Gal(b1-4)[Fuc(a1-3)]GlcNAc
# Summary of the method: as §1
# [21] = target: Neu5Ac(a2-6)Gal(b1-4)GlcNAc(b1-3)GalNAc
# Summary of the method: as §1
# [22] = target: Neu5Ac(a2-6)Gal(b1-4)GlcNAc(b1-3)[Neu5Ac(a2-6)Gal(b1-4)GlcNAc(b1-6)]GalNAc
# Summary of the method: as §1
# [23] = target: Neu5Ac(a2-6)Gal(b1-4)GlcNAc(b1-6)GalNAc
# Summary of the method: as §1
# [24] = target: Neu5Ac(a2-6)Gal(b1-4)GlcNAc(b1-6)[Gal(b1-3)GlcNAc(b1-3)]Gal(b1-4)Glc
# Summary of the method: as §1
# [25] = target: Neu5Ac(a2-6)Gal(b1-4)GlcNAc(b1-6)[Gal(b1-3)]GalNAc
# Summary of the method: as §1
# [26] = target: Neu5Ac(a2-6)Gal(b1-4)GlcNAc6S
# Summary of the method: as §1
# Neu5Ac(a2-6)GalNAc = target: Neu5Ac(a2-6)GalNAc
# Summary of the method: as §1
# [27] = target: Neu5Ac(a2-6)GalNAc(b1-4)GlcNAc
# Summary of the method: as §1
# [28] = target: Neu5Ac(a2-6)GalNAc(b1-4)GlcNAc6S
# Summary of the method: as §1
# [29] = target: Neu5Ac(a2-6)GlcNAc(b1-4)GlcNAc
# Summary of the method: as §1
# [30] = target: Neu5Ac(a2-6)GlcNAc(b1-4)GlcNAc(b1-4)GlcNAc
# Summary of the method: as §1
binder,measurement,setting,value
PX14379D-pdi-530-26-530 (Parabacteroides distasonis) (protein) DETVYDKLPADDFGQSTAELNALIGNSHNTMKKFWTEYMHLSECSGSMAVTPTRRGGDWYDGGQYREIYMHTWTSQTSRVKSAWKAATEAIGTCNEAIRKLQNSEILTEEEKAQDVADLRGVRAFWIYVMMDYWGNIPLLTEFHPTDKVFPGNSSRQEVFDWLIQEVEEIKDICPPATTENYGSFTQGAAYSLLAKLYLNAEAWGVTFSGNAYQKVIDNCDKVMAMGYILEPNWKDNFSVTNENSKEAILAATFSSSDTGNDGNVKNELHNNTLHYKDYLSLGITASGTWNGICAQPEYVRLFDEEDARLDGTFLTGLMIDKSTGKPIMTDHNNELNHTIDVNMIPGMEYDGTNWSAVEQHDGARCFKWEFASDLTSSMGNDFHIFRLADIYLMKAEALLRGGGSVSEATALVNTIRERGYGNSDHNYATVTLKEVQLERRLELAWEVYSRQDDIRFGCFTTGMWPQSNCERKADDYLKLLPVSQDAWQVNPNLKQNPGYAAFSK,glycan array binding signal (z-score),[1],-0.44
same,glycan array binding signal (z-score),[2],-0.286
same,glycan array binding signal (z-score),[3],0.11
same,glycan array binding signal (z-score),[4],0.855
same,glycan array binding signal (z-score),[5],-0.263
same,glycan array binding signal (z-score),[6],-0.797
same,glycan array binding signal (z-score),[7],0.148
same,glycan array binding signal (z-score),[8],-1.24
same,glycan array binding signal (z-score),[9],0.011
same,glycan array binding signal (z-score),[10],-0.629
same,glycan array binding signal (z-score),[11],-0.019
same,glycan array binding signal (z-score),[12],0.175
same,glycan array binding signal (z-score),[13],-0.23
same,glycan array binding signal (z-score),[14],-0.235
same,glycan array binding signal (z-score),[15],-0.566
same,glycan array binding signal (z-score),[16],1.43
same,glycan array binding signal (z-score),[17],-1.03
same,glycan array binding signal (z-score),[18],-0.731
same,glycan array binding signal (z-score),[19],1.51
same,glycan array binding signal (z-score),[20],-0.012
same,glycan array binding signal (z-score),[21],0.577
same,glycan array binding signal (z-score),[22],0.452
same,glycan array binding signal (z-score),[23],-0.857
same,glycan array binding signal (z-score),[24],0.598
same,glycan array binding signal (z-score),[25],0.168
same,glycan array binding signal (z-score),[26],0.206
same,glycan array binding signal (z-score),Neu5Ac(a2-6)GalNAc,-0.426
same,glycan array binding signal (z-score),[27],0.187
same,glycan array binding signal (z-score),[28],-0.637
same,glycan array binding signal (z-score),[29],0.256
same,glycan array binding signal (z-score),[30],0.516

# Already shown: an excerpt of the list.
binder,measurement,setting,value
PX14379D-pdi-530-26-530 (Parabacteroides distasonis) (protein) DETVYDKLPADDFGQSTAELNALIGNSHNTMKKFWTEYMHLSECSGSMAVTPTRRGGDWYDGGQYREIYMHTWTSQTSRVKSAWKAATEAIGTCNEAIRKLQNSEILTEEEKAQDVADLRGVRAFWIYVMMDYWGNIPLLTEFHPTDKVFPGNSSRQEVFDWLIQEVEEIKDICPPATTENYGSFTQGAAYSLLAKLYLNAEAWGVTFSGNAYQKVIDNCDKVMAMGYILEPNWKDNFSVTNENSKEAILAATFSSSDTGNDGNVKNELHNNTLHYKDYLSLGITASGTWNGICAQPEYVRLFDEEDARLDGTFLTGLMIDKSTGKPIMTDHNNELNHTIDVNMIPGMEYDGTNWSAVEQHDGARCFKWEFASDLTSSMGNDFHIFRLADIYLMKAEALLRGGGSVSEATALVNTIRERGYGNSDHNYATVTLKEVQLERRLELAWEVYSRQDDIRFGCFTTGMWPQSNCERKADDYLKLLPVSQDAWQVNPNLKQNPGYAAFSK,glycan array binding signal (z-score),[17],-1.03
same,glycan array binding signal (z-score),[18],-0.731
same,glycan array binding signal (z-score),[19],1.51
